The source of these data is PMC3407066.

The chains behind the UniProt entries cited, without tags or fusion partners. Residues count along the entry.
UniProt P37173, residues 23-567: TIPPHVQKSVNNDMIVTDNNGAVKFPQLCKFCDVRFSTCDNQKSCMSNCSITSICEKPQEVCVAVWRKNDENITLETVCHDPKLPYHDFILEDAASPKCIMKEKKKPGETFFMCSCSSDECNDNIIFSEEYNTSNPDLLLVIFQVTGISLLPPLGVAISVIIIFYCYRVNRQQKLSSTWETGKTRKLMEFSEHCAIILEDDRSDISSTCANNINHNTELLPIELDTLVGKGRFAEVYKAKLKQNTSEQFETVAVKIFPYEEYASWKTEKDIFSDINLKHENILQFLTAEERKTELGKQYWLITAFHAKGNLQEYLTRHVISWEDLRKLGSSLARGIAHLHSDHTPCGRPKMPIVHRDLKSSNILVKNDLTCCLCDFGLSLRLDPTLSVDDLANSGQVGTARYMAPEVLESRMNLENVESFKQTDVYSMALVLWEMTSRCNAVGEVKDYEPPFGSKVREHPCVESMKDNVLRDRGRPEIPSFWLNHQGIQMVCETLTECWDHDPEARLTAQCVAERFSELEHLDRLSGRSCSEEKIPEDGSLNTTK
UniProt Q8TC59: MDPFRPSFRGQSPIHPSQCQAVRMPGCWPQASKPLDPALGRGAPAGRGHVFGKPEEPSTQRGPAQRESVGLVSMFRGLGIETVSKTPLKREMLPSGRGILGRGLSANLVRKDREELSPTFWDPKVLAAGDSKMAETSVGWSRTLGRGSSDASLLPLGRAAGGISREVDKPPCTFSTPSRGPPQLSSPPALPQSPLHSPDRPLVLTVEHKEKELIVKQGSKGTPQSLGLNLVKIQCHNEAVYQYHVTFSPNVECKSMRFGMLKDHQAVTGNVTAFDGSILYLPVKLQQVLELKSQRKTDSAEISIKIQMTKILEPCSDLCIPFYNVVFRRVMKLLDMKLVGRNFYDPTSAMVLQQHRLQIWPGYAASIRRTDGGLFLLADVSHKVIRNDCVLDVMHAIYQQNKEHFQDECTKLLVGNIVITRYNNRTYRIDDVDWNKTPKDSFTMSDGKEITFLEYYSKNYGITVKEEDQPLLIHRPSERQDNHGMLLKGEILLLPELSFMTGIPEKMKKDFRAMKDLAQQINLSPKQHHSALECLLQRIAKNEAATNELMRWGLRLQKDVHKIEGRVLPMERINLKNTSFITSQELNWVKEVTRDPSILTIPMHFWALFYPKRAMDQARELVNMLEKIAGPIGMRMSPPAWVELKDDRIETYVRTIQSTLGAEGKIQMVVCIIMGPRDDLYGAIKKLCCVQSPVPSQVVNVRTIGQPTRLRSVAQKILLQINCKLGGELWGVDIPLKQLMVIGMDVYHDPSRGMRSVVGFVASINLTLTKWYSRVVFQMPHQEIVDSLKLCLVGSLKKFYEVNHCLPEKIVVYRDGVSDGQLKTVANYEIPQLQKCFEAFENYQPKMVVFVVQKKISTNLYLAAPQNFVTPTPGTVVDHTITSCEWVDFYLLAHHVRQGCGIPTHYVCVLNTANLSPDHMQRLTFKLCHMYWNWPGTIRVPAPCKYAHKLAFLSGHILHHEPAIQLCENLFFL

Test [1] has as its target T1, TGF-β type I receptor (TβRI), endogenous (human (endogenous in HEK-293)) (UniProt P36897).
T1 sequence: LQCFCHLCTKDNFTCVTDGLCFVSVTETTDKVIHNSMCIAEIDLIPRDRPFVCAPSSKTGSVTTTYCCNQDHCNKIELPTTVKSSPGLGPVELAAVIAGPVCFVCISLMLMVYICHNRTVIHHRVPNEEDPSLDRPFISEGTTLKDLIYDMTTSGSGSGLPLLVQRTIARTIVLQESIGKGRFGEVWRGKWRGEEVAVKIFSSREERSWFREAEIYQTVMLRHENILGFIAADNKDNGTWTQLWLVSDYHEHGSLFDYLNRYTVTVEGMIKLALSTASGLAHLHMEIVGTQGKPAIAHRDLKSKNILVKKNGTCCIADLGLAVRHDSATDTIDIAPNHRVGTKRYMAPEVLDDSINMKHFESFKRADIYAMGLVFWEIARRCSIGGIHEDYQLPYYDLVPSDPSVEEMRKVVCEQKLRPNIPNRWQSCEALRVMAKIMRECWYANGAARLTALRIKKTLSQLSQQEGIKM
Nature of the test: co-IP; endogenous proteins of HEK-293 cells; reciprocal IP with anti-HILI or anti-Hsp90, Western blotting.

The target of test [2] is TGF-β type II receptor (TβRII), endogenous (human (endogenous in HEK-293)) (UniProt P37173). The test is described as above.

These are yes or no findings as the source states them, for the method shown. Binding seen in cells or lysates may run through a third protein.

As to “endogenous HILI (human PIWIL2) (from UniProt Q8TC59 1-973)”, the binding result in test [1] and in test [2] was “no binding” in each case.
